# In all, about 400,000 compounds went through this assay and about 5,500 (1.4%) were called active. Inconclusive means that the source gave no clear call. Such entries were picked first, then a sample of the others. Calls follow the shape of the dose curve; as a rule, active = well fitted cell-killing curve with a large enough effect; inconclusive = small, poorly fitted or top-dose-only effect, or effect the other way; inactive = flat fitted curve, though single readings scatter. Potencies beside an inconclusive call are fits to weak or partial responses and may not hold up.
# Test: qHTS assay for MDR1-selective chemotherapeutics: Primary screen using the parental adenocarcinoma cell KB-3-1; also: nearly all actives have a fitted effect of over 60% in size
# Details: KB-3-1 viability, CellTiter-Glo ATP luminescence, 72 h; activity change, negative = cytotoxic: at 46.1 µM (top of the series)
# In short: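 Screening of KB-3-1 cells (DMEM, 10% FBS, phenol-red free) ran from lowest to highest compound concentration; after 72 h at 37 °C viability was read luminescently and curves fitted.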
# % is scaled to controls: 0 for no effect and ±100 for the full control effect; potency is read from the fitted curve at half-maximal effect.
Structure (SMILES),Potency,"activity change, negative = cytotoxic"
Cc1c(CCOC(=O)CC23CC4CC(CC(C4)C2)C3)sc[n+]1Cc1ccccc1,"inconclusive: 29.1 µM [cytotoxic, single point]",–
CC(=O)C[C@@H]1OC[C@H](Cc2ccccc2)N1S(=O)(=O)c1ccc(C)cc1,"inconclusive: 16.4 µM [cytotoxic, single point]",–
CCSc1nc2nccnc2c(=O)[nH]1,–,inactive: 4.17%
Cc1cccc(N2CCN(C(=O)NCc3ccc(Cl)cc3)CC2)c1,active: 23.1 µM,–
CCC(C)NC(=O)c1c2c(nc3ccccc13)C(=O)N(C1CCCCC1)C2 (stereo unspecified),–,inactive: 2.75%
Cn1c(=O)c2cc(NC(=S)NC3CCCCC3)ccc2n1-c1ccccc1,–,inactive: 0%
CCOC(=O)Cc1ccc(Nc2nc3cc(-c4sccc4C)sc3c(=O)n2C)cc1,active: 10.3 µM,–
COc1ccc(C(=O)c2cc(C(C)=O)c(Nc3ccccc3)s2)cc1,"inconclusive: 29.1 µM [cytotoxic, single point]",–
CC1CC(C)CN(CC(=O)N2CCCc3c2c(=O)oc2ccc(OCc4ccccc4)cc32)C1 (stereo unspecified),"inconclusive: 29.1 µM [cytotoxic, single point]",–
Cc1ccc(S(=O)(=O)ON2C(=O)c3ccccc3C2=O)c(C)c1,–,inactive: -10.8%
Cc1c(O)ccc2c(CN3CCN(CCO)CC3)cc(=O)oc12,"inconclusive: 13 µM [rising, partial curve, poor fit]",–
O=C(CNC(=O)c1ccc(F)cc1)OCc1cc(=O)n2ccsc2n1,–,inactive: 7.5%
CC(C)(C)c1ccc(CN2N=Nc3ccccc3S2(=O)=O)cc1,active: 11.6 µM,–
Cc1cc(OCC(=O)Nc2c(C(C)C)cccc2C(C)C)no1,"inconclusive: 0.13 µM [rising, full curve]",–
O=[N+]([O-])c1ccc2c(c1)c1ccccc1n2CCO,"inconclusive: 14.6 µM [cytotoxic, single point]",–
O=C(O)C1CCN(c2ccc([N+](=O)[O-])cc2[N+](=O)[O-])CC1,"inconclusive: 32.6 µM [cytotoxic, single point]",–
COc1ccc(C(=O)Nc2sc(C(=O)N(C)C)c(C)c2C#N)cc1[N+](=O)[O-],"inconclusive: 20.6 µM [rising, partial curve, poor fit]",–
O=C(NCc1cccc(Cl)c1)C1CCN(S(=O)(=O)c2ccc(F)cc2)CC1,–,inactive: 1.89%
C=CCS(=O)(=O)c1nc2ccccc2s1,"inconclusive: 29.1 µM [cytotoxic, single point]",–
Cc1cc(Cl)ccc1-c1cc2nc(NCCCN(C)C)n(C)c(=O)c2s1,–,inactive: -2.11%
O=C(CCS(=O)(=O)Cc1ccccc1)Nc1nnc(C(F)(F)F)s1,"inconclusive: 29.1 µM [cytotoxic, single point]",–
O=C1C=CC(=O)N1c1ccccc1N1C(=O)C=CC1=O,"inconclusive: 23.1 µM [cytotoxic, partial curve, poor fit]",–
CCN(CC)C(=O)CSc1nc(O)c(Cc2ccccc2)c(=O)n1-c1ccccc1,–,inactive: -0.463%
CC1(C)Oc2ccc3ccc(=O)oc3c2/C(=C/NNC(N)=S)C1=O,"inconclusive: 29.1 µM [cytotoxic, single point]",–

# Laid out differently: 4 of the compounds above
Structure (SMILES) | Potency | activity change, negative = cytotoxic
O=C(O)C1CCN(c2ccc([N+](=O)[O-])cc2[N+](=O)[O-])CC1 | inconclusive: 32.6 µM [cytotoxic, single point] | –
COc1ccc(C(=O)Nc2sc(C(=O)N(C)C)c(C)c2C#N)cc1[N+](=O)[O-] | inconclusive: 20.6 µM [rising, partial curve, poor fit] | –
O=C(NCc1cccc(Cl)c1)C1CCN(S(=O)(=O)c2ccc(F)cc2)CC1 | – | inactive: 1.89%
C=CCS(=O)(=O)c1nc2ccccc2s1 | inconclusive: 29.1 µM [cytotoxic, single point] | –

# More compounds:

Structure (SMILES),Potency,"activity change, negative = cytotoxic"
CC[n+]1c(/C=C/N(C)c2ccccc2)n(-c2ccccc2)c2ccc(-c3nc4ccccc4s3)cc21,active: 5.8 µM,–
COc1ccc2c(c1)c[n+](C)c1c3cc(OC)c(OC)cc3ccc21,active: 2.91 µM,–
CCOC(=O)c1cnc2ccc(OC)cc2c1NCc1ccccc1,–,inactive: -1.96%
N#Cc1cc2c(=O)n3ccccc3nc2n(-c2ccccc2Cl)c1=O,"inconclusive: 18.4 µM [cytotoxic, single point]",–
COc1cccc(N2CCN(C(=O)c3ccc(CS(=O)Cc4ccc(Cl)cc4)o3)CC2)c1 (stereo unspecified),–,inactive: -9.5%
Cc1ccc(-n2nnnc2SCC(=O)Nc2ccccc2N2CCCCC2)cc1C,"inconclusive: 29.1 µM [cytotoxic, single point]",–
CCCOc1ccc(/C=N/Nc2cc(N3CCOCC3)ncn2)c(O)c1,active: 11.6 µM,–
Cc1ccc(OCC(=O)N/N=C\c2c(C)[nH]n(-c3ccccc3)c2=O)c([N+](=O)[O-])c1,"inconclusive: 32.6 µM [cytotoxic, single point]",–
CCC/C(=N\NC(=O)CNC(=O)/C=C/c1ccco1)c1ccccc1,"inconclusive: 3.26 µM [rising, partial curve, poor fit]",–
COC(=O)C1=CN(Cc2ccc(OC)c(OC)c2)C=C(C(=O)OC)C1c1ccc(F)cc1,"inconclusive: 16.4 µM [cytotoxic, single point]",–
Cc1ccc2c(CC(=O)N(Cc3ccc(N(C)C)cc3)Cc3ccco3)coc2c1C,"inconclusive: 16.4 µM [cytotoxic, partial curve, poor fit]",–
COc1cc(/C=C/C(=O)N2C(=O)c3cccc(N)c3C2=O)cc(OC)c1OC,–,inactive: -1.67%
C=CCOC(=O)C1=C[C@H](c2csc3ccccc23)C[C@H](OCc2ccc(CO)cc2)O1,–,inactive: 8.84%
COc1cc2ncnc(NCCc3ccccc3)c2cc1OC,"inconclusive: 18.4 µM [cytotoxic, single point]",–
O=C1CSC2(C(=O)N(Cc3cccc(C(F)(F)F)c3)c3ccccc32)N1c1ccc(F)c(F)c1 (stereo unspecified),"inconclusive: 20.6 µM [cytotoxic, single point]",–
Cc1ccc(C(=O)Nc2cc3[nH]c(=O)oc3cc2C)cc1,"inconclusive: 4.11 µM [cytotoxic, full curve, poor fit]",–
Cc1ccc2c(=O)n3c(nc2c1)C(Cc1ccccc1)NC(=O)c1cc2ccccc2cc1-3 (stereo unspecified),active: 11.6 µM,–
COc1cccc(CN(C)C(=O)C2CC(=O)N(c3ccc4c(c3)OCCO4)C2)c1 (stereo unspecified),"inconclusive: 20.6 µM [rising, single point]",–
O=C(Cn1cnc2sc(-c3ccccc3)cc2c1=O)NCc1ccco1,active: 18.4 µM,–
Cc1ccc(NCCN(C)C)c2c(=O)c3cc(O)ccc3sc12,"inconclusive: 9.2 µM [cytotoxic, partial curve, poor fit]",–
COc1ccc(-n2c(C)cc(C(=O)CN3C(=O)C(=O)N(Cc4ccccc4)C3=O)c2C)cc1,"inconclusive: 32.6 µM [cytotoxic, single point]",–
O=C(c1ccc2ccccc2c1)N1CCN(S(=O)(=O)/C=C/c2ccccc2)CC1,–,inactive: 10.8%
Cc1cccnc1NC(=O)CN1C(=O)COc2ccc(Cl)cc21,–,inactive: 11.1%
O=C1CCCN1C(=O)CSc1nnnn1-c1cccc(F)c1,–,inactive: 0%

Structure (SMILES),Potency,"activity change, negative = cytotoxic"
COc1ccc(NC(=O)NC2CCCc3ccccc32)cc1 (stereo unspecified),"inconclusive: 18.4 µM [cytotoxic, partial curve, poor fit]",–
Cc1c(C(=O)N/N=C/c2ccccc2)[nH]c2ccc(Cl)cc12,"inconclusive: 23.1 µM [cytotoxic, single point]",–
Cc1cc(C)cc(NC(=O)C2C3C=CC4(O3)C2C(=O)N(CCCN2CCCCC2)C4C(=O)NC2CCCCC2)c1 (stereo unspecified),"inconclusive: 32.6 µM [cytotoxic, single point]",–
CCc1ccc(OCC(=O)N(Cc2ccc(C(C)C)cc2)C2CCS(=O)(=O)C2)cc1 (stereo unspecified),"inconclusive: 29.1 µM [cytotoxic, single point]",–
CCc1ccccc1N(C)S(=O)(=O)c1cc(-c2cc(C)no2)ccc1OC,"inconclusive: 18.4 µM [cytotoxic, single point]",–
CC(C)(C)CCN1CCC(CN2CCNC(=O)C2=O)CC1,"inconclusive: 0.259 µM [rising, full curve]",–
COC(=O)C1=CN(c2ccc(F)cc2)C(N)=C(C#N)C1c1ccc(-c2ccccc2)cc1 (stereo unspecified),"inconclusive: 29.1 µM [cytotoxic, single point]",–
Cc1ccc2nc(-c3ccc(NS(C)(=O)=O)cc3)cc(-c3ccccc3)c2c1,–,inactive: 15.4%
Cc1nnc(NC(=O)c2ccc(S(=O)(=O)N3CCc4ccccc4C3)cc2)o1,–,inactive: -29.7%
NC(Cc1ccc(C(F)(F)F)cc1)c1csc(NC(=O)Nc2ccccc2Cc2ccccc2)n1 (stereo unspecified),"inconclusive: 29.1 µM [cytotoxic, single point]",–
Cn1cccc1CC(=O)NNC(=S)NC(=O)c1ccccc1Br,"inconclusive: 20.6 µM [cytotoxic, single point]",–
Cc1cc(=O)[nH]c(N/N=C/c2ccc(-c3ccc(F)cc3)o2)n1,"inconclusive: 13 µM [cytotoxic, partial curve]",–
CN1C(=O)C(CC#N)(C2(CC#N)C(=O)N(C)c3ccccc32)c2ccccc21 (stereo unspecified),–,inactive: 0%
CCCCOc1ccc(C(=O)N/C(=C/C=C/c2ccccc2)C(=O)NCCO)cc1,–,inactive: 13.7%
Cc1ccc(C(=O)NCC(=O)NCC(c2ccco2)N2CCCCC2)cc1C (stereo unspecified),–,inactive: 2.97%
NC(=O)CCCn1c(C(=O)c2ccc(Cl)cc2)c2ccc(C(F)(F)F)cc2[n+]1[O-],"inconclusive: 23.1 µM [rising, single point]",–
COc1ccc(-c2nnc3sc(-c4cccs4)nn23)cc1OC,–,inactive: 18.2%
Cc1ccc(S(=O)(=O)CCC(=O)Nc2nc(-c3ccccn3)cs2)cc1,"inconclusive: 32.6 µM [cytotoxic, partial curve, poor fit]",–
CCn1c(CN2CCN(C)CC2)nc2cc(NC(=O)c3ccc([N+](=O)[O-])cc3)ccc21,–,inactive: 7.96%
O=S(=O)([N-]c1nc2ccccc2nc1-n1cc[n+](Cc2ccccc2)c1)c1ccc(Cl)cc1,–,inactive: -6.99%
O=C(CCCN1C(=O)/C(=C/c2ccco2)SC1=S)Nc1ccccc1C(=O)O,–,inactive: 6.22%
COc1cc(CNc2ncnc3c2ncn3[C@H]2CN(CCc3ccccc3)C[C@@H](CO)O2)cc(OC)c1OC,–,inactive: -1.94%
Cc1ccsc1C(=O)Nc1nnc(-c2ccco2)o1,"inconclusive: 14.1 µM [cytotoxic, partial curve]",–
